Data as given in PubChem BioAssay AID1508597 (Cure First, 2020)
Screen: 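Survival screen with siRNA in ovarian cancer cells derived from patients, with or without rucaparib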 (primary screen). Cells: human ovarian carcinoma lines grown from tumours: OCI-P5x (papillary serous) and OCI-C5x (clear cell). Knock-down reagent: siRNA pool against human genes, 1.25 pmol siRNA per well. Time to read-out: 72 h or 96 h, depending on the cell culture. Treatment: rucaparib 20 µM (about IC30) or vehicle, present until read-out. Rucaparib or vehicle: Vehicle. Cell line: OCI-C5x (clear cell). Detection: 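Luminescent ATP-based viability assay read 72 or 96 h after transfection, depending on culture, given as normalised percent viability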. Scale: viability, normalised: higher = more viable cells remaining. Call rule: 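a well counts as a hit if its normalised viability is under 80 percent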. Calls: active = viability under 80%; inactive = viability 80% or more.
Shown is a random part of the about 2,100 reagents, in one setting of the screen. 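Calls flag viability under 80% in either arm, not effects specific to rucaparib; the reference for percent is not stated.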 A number with no mark means an inactive call. A reagent listed more than once was tested more than once; the source does not tell the runs apart. No sequences are given here. Not given: the 100% reference.

DDX42 (DEAD-box helicase 42), technical replicate 1
- viability, normalised (%): 32.9 (active)

DDX42 (DEAD-box helicase 42), technical replicate 2
- viability, normalised (%): 53.1 (active)

DDX42 (DEAD-box helicase 42), technical replicate 3
- viability, normalised (%): 42.3 (active)

FANCE (FA complementation group E), technical replicate 1
- viability, normalised (%): 56.2 (active)

FANCE (FA complementation group E), technical replicate 2
- viability, normalised (%): 46.2 (active)

FANCE (FA complementation group E), technical replicate 3
- viability, normalised (%): 49 (active)

RAD54L2 (RAD54 like 2), technical replicate 1
- viability, normalised (%): 38.4 (active)

RAD54L2 (RAD54 like 2), technical replicate 2
- viability, normalised (%): 43.3 (active)

RAD54L2 (RAD54 like 2), technical replicate 3
- viability, normalised (%): 61.2 (active)

RPS9 (ribosomal protein S9), technical replicate 1
- viability, normalised (%): 25.2 (active)

RPS9 (ribosomal protein S9), technical replicate 2
- viability, normalised (%): 37.9 (active)

RPS9 (ribosomal protein S9), technical replicate 3
- viability, normalised (%): 35.7 (active)

CTPS1 (CTP synthase 1), technical replicate 1
- viability, normalised (%): 42.7 (active)

CTPS1 (CTP synthase 1), technical replicate 2
- viability, normalised (%): 33.4 (active)

CTPS1 (CTP synthase 1), technical replicate 3
- viability, normalised (%): 37.2 (active)

NME5 (NME/NM23 family member 5), technical replicate 1
- viability, normalised (%): 59.1 (active)

NME5 (NME/NM23 family member 5), technical replicate 1
- viability, normalised (%): 51.7 (active)

NME5 (NME/NM23 family member 5), technical replicate 2
- viability, normalised (%): 50.1 (active)

NME5 (NME/NM23 family member 5), technical replicate 2
- viability, normalised (%): 60.7 (active)

NME5 (NME/NM23 family member 5), technical replicate 3
- viability, normalised (%): 46.7 (active)

NME5 (NME/NM23 family member 5), technical replicate 3
- viability, normalised (%): 54.4 (active)

HM13 (histocompatibility minor 13), technical replicate 1
- viability, normalised (%): 45 (active)

HM13 (histocompatibility minor 13), technical replicate 2
- viability, normalised (%): 50.1 (active)

HM13 (histocompatibility minor 13), technical replicate 3
- viability, normalised (%): 58.6 (active)

GNE, technical replicate 1
- viability, normalised (%): 84.1

GNE, technical replicate 2
- viability, normalised (%): 63.3 (active)

GNE, technical replicate 3
- viability, normalised (%): 70.7 (active)

CDX4 (caudal type homeobox 4), technical replicate 1
- viability, normalised (%): 88.4

CDX4 (caudal type homeobox 4), technical replicate 2
- viability, normalised (%): 89.9

CDX4 (caudal type homeobox 4), technical replicate 3
- viability, normalised (%): 73.1 (active)

NAGK (N-acetylglucosamine kinase), technical replicate 1
- viability, normalised (%): 53.2 (active)

NAGK (N-acetylglucosamine kinase), technical replicate 2
- viability, normalised (%): 56.9 (active)

NAGK (N-acetylglucosamine kinase), technical replicate 3
- viability, normalised (%): 41.2 (active)

Look-ups from above:
RPS9 (ribosomal protein S9), technical replicate 1, viability, normalised (%) → 25.2 (active)
DDX42 (DEAD-box helicase 42), technical replicate 3, viability, normalised (%) = 42.3 (active)
Under “viability, normalised (%)”, GNE, technical replicate 2 has 63.3 (active)
NAGK (N-acetylglucosamine kinase), technical replicate 3, viability, normalised (%) → 41.2 (active)
Under “viability, normalised (%)”, CDX4 (caudal type homeobox 4), technical replicate 2 is entered as 89.9
